The other results are listed elsewhere or left out.
Compound: Cc1cc(ccc1-c1ccccc1)C(=O)N1CCCN(CC1)C(=O)CCl [compound 10]
Experiment: probe-labelled cysteine peptide fold change vs DMSO (competition) (log2 fold change); higher = less target engagement (more negative = stronger competition)
Conditions: THP-1, incubation time: 4 h
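Also: competitive profiling in live THP-1 cells: cysteine peptides tagged with an iodoacetamide desthiobiotin (IA-DTB) probe, intensity after compound treatment relative to DMSO-treated cells.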

The chains behind the UniProt entries cited, without tags or fusion partners. Where a name states a change or a piece, a line headed by the entry shows the natural chain unless it says otherwise.
UniProt P48147: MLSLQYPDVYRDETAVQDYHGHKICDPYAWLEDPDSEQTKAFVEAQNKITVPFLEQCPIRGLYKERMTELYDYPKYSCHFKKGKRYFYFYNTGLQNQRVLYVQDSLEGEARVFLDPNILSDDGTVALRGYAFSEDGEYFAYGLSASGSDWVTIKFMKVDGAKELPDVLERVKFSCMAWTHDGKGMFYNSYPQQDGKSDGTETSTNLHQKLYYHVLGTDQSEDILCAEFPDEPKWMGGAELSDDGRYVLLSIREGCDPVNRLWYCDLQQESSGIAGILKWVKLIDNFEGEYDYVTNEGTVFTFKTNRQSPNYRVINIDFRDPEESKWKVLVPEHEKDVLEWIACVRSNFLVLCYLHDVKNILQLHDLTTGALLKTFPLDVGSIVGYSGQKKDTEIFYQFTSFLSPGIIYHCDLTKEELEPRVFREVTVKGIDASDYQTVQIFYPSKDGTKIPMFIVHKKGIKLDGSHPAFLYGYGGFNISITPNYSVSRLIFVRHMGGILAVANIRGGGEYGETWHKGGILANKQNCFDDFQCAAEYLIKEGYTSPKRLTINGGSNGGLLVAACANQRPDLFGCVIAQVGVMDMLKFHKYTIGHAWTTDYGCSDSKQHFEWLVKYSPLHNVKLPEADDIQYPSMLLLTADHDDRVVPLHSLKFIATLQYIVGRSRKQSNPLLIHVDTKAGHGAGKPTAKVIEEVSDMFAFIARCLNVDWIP
UniProt P50897: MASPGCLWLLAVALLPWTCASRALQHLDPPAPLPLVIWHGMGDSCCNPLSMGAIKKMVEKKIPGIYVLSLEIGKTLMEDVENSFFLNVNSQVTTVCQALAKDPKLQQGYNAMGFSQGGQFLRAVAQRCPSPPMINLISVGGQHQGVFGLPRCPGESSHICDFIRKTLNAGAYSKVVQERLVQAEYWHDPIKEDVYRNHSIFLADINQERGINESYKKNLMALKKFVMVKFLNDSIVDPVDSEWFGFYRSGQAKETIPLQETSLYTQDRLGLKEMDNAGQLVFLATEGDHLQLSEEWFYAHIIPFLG
UniProt Q9HCU5: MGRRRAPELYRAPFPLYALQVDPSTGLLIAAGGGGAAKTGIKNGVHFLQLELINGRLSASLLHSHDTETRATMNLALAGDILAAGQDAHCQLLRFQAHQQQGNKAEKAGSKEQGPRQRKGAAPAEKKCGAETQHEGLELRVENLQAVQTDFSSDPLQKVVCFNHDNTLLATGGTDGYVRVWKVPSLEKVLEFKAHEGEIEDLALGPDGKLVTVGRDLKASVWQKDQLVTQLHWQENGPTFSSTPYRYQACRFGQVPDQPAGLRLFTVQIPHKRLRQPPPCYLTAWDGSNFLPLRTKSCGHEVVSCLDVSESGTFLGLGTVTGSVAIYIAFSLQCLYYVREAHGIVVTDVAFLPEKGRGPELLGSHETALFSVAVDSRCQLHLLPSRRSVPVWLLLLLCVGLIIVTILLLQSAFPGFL
UniProt P62714, whole entry: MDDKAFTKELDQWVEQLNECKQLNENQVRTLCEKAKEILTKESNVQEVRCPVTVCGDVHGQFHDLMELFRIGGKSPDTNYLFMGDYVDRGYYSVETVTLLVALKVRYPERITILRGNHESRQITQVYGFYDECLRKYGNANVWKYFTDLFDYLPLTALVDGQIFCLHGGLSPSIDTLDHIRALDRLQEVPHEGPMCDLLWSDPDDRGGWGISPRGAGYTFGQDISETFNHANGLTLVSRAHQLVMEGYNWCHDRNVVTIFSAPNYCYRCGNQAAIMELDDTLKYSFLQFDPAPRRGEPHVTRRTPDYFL
UniProt Q96QH2: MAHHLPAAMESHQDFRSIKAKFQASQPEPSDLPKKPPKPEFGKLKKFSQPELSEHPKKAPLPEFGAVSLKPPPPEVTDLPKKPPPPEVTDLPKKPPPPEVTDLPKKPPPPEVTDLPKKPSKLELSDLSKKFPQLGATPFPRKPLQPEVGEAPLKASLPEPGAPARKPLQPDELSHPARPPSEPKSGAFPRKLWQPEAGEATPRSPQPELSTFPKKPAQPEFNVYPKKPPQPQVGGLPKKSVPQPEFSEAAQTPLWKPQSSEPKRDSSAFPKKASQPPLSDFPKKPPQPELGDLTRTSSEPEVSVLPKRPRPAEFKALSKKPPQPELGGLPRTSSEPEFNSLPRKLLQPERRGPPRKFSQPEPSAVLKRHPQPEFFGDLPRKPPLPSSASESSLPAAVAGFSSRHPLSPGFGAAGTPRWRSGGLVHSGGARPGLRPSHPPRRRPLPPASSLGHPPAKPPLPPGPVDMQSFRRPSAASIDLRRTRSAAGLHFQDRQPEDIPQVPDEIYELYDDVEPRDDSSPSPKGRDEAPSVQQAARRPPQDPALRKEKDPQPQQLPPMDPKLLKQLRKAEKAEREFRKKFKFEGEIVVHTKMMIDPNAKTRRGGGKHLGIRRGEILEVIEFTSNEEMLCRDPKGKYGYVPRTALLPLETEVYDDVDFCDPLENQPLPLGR
UniProt Q9NY27: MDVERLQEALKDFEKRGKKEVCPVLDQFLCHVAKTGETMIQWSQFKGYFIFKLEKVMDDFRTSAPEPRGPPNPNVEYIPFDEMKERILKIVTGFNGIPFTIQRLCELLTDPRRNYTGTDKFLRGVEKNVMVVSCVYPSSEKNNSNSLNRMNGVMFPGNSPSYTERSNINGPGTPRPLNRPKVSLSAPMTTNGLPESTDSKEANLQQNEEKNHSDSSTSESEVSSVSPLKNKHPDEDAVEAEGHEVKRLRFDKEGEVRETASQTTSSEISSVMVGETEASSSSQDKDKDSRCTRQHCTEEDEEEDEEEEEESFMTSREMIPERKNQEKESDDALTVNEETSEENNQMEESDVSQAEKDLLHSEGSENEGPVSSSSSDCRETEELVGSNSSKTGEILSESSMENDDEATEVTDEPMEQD
UniProt O00743: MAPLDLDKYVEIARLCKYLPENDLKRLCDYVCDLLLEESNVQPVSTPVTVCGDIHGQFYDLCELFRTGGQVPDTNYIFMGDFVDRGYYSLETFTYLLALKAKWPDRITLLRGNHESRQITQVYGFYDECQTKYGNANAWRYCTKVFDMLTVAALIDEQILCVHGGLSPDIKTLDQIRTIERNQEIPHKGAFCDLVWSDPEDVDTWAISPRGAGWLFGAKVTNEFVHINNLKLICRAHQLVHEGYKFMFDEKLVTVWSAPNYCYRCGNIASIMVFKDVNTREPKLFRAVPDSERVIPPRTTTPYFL
UniProt P63151: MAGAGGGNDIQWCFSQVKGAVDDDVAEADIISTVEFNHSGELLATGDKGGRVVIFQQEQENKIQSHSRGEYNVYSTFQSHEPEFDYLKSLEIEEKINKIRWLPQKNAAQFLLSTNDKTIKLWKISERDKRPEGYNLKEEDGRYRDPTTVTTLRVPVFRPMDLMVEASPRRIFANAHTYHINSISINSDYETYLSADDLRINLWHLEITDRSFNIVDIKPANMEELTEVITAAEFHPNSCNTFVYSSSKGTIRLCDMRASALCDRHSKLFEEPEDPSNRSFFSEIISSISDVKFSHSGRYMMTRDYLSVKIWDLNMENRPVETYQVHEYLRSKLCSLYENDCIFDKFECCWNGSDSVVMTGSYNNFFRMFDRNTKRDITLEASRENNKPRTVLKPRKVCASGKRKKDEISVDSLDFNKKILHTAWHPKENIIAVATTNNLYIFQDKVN
UniProt Q86WC6: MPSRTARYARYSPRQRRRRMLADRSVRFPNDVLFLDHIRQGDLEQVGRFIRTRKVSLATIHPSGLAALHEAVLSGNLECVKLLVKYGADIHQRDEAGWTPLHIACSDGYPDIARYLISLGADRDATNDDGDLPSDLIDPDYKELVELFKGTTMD
UniProt Q6PFW1: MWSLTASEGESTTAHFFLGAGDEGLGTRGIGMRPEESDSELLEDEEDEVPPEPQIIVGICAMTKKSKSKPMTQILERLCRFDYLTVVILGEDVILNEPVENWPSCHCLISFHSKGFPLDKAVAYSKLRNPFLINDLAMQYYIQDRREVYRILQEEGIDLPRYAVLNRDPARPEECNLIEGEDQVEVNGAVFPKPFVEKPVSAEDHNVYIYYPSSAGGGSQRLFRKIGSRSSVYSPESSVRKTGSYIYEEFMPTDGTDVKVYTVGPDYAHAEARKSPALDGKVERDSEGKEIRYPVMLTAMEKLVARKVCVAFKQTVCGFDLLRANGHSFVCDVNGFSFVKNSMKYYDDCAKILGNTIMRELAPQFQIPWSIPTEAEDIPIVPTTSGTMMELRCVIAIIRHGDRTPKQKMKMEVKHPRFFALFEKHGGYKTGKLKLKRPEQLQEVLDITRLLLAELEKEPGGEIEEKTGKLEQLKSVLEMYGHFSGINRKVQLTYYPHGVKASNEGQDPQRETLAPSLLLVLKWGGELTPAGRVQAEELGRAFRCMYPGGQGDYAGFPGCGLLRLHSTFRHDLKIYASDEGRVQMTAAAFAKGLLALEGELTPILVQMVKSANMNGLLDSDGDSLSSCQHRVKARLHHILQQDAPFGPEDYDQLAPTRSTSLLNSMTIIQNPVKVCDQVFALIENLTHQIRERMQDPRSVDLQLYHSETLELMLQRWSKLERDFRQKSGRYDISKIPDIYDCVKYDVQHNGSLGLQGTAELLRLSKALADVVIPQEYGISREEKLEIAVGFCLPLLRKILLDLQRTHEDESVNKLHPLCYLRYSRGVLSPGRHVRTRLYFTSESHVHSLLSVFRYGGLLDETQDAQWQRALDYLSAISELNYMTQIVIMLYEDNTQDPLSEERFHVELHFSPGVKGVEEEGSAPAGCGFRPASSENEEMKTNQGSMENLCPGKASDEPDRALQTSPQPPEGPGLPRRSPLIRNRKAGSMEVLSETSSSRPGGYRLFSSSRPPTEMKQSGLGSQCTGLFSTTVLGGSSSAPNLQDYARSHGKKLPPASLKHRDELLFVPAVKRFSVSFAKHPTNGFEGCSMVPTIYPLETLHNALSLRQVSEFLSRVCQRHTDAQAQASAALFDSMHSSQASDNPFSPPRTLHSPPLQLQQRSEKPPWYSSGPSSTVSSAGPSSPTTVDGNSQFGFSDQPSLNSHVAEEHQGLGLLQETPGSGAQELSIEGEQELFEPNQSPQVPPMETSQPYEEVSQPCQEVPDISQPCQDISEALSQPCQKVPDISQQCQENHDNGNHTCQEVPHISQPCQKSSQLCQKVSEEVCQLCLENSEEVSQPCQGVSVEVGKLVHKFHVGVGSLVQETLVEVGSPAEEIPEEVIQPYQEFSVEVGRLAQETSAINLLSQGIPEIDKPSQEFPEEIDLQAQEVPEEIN
UniProt Q5H9R7: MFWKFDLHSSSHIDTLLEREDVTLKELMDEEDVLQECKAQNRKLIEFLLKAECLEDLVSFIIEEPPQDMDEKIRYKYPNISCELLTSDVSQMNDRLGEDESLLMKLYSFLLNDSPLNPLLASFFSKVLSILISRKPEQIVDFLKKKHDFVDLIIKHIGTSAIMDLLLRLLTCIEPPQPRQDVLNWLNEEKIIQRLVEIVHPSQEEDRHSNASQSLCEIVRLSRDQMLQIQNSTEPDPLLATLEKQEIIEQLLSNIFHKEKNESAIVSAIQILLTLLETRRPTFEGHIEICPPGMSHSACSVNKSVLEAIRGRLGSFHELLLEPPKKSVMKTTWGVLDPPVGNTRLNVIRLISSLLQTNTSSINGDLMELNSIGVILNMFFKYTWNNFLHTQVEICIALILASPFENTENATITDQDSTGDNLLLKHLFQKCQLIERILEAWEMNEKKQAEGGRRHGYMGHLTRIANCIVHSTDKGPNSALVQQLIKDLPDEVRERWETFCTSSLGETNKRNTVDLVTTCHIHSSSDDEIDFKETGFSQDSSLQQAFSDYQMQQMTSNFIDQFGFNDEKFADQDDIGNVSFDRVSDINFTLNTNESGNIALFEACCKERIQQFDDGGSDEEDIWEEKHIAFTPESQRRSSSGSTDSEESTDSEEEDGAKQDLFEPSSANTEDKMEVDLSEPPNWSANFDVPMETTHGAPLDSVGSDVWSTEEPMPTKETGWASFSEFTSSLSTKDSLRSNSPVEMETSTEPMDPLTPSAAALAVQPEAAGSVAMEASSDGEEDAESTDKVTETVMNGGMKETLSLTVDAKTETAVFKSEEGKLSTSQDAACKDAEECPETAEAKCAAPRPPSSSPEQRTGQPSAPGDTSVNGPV

## PREP_P48147_255_EGCDPVNR (UniProt P48147)
10 µM
  probe-labelled cysteine peptide fold change: 0.0137
50 µM
  probe-labelled cysteine peptide fold change: -0.401

## PPT1_P50897_128_CPSPPMINLISVGGQHQGVFGLPR (UniProt P50897)
10 µM
  probe-labelled cysteine peptide fold change: -0.152
50 µM
  probe-labelled cysteine peptide fold change: 0.286

## PREP_P48147_343_VLVPEHEKDVLEWIACVR (UniProt P48147)
10 µM
  probe-labelled cysteine peptide fold change: -0.124
50 µM
  probe-labelled cysteine peptide fold change: -0.594

## PREB_Q9HCU5_280_LRQPPPCYLTAWDGSNFLPLR (UniProt Q9HCU5)
10 µM
  probe-labelled cysteine peptide fold change: 0.0286
50 µM
  probe-labelled cysteine peptide fold change: -0.169

## PRDX2_P32119_172_LVQAFQYTDEHGEVCPAGWKPGSDTIKPNVDDSK (UniProt P32119)
10 µM
  probe-labelled cysteine peptide fold change: -0.0563
50 µM
  probe-labelled cysteine peptide fold change: -0.154

## PPP2CB_P62714_20_ELDQWVEQLNECK (UniProt P62714)
10 µM
  probe-labelled cysteine peptide fold change: -0.0338
50 µM
  probe-labelled cysteine peptide fold change: 0.11

## PRAM1_Q96QH2_629_RGEILEVIEFTSNEEMLCR (UniProt Q96QH2)
10 µM
  probe-labelled cysteine peptide fold change: 0.11
50 µM
  probe-labelled cysteine peptide fold change: 0.389

## PPP4R2_Q9NY27_22+30_EVCPVLDQFLCHVAK (UniProt Q9NY27)
10 µM
  probe-labelled cysteine peptide fold change: -0.437
50 µM
  probe-labelled cysteine peptide fold change: -0.442

## PPP6C_O00743_262_LVTVWSAPNYCYR (UniProt O00743)
10 µM
  probe-labelled cysteine peptide fold change: 0.0166
50 µM
  probe-labelled cysteine peptide fold change: -0.0458

## PPP1R10_Q96QC0_463_VPWVCPR (UniProt Q96QC0)
10 µM
  probe-labelled cysteine peptide fold change: -0.0231
50 µM
  probe-labelled cysteine peptide fold change: 0.000192

## PPP2R2A_P63151_398_VCASGK (UniProt P63151)
10 µM
  probe-labelled cysteine peptide fold change: -0.159
50 µM
  probe-labelled cysteine peptide fold change: -0.0658

## PPP6C_O00743_129_QITQVYGFYDECQTK (UniProt O00743)
10 µM
  probe-labelled cysteine peptide fold change: 0.0334
50 µM
  probe-labelled cysteine peptide fold change: 0.309

## PPP1R27_Q86WC6_79_KVSLATIHPSGLAALHEAVLSGNLECVK (UniProt Q86WC6)
10 µM
  probe-labelled cysteine peptide fold change: 0.305
50 µM
  probe-labelled cysteine peptide fold change: 0.00964

## PPIP5K1_Q6PFW1_675_VCDQVFALIENLTHQIR (UniProt Q6PFW1)
10 µM
  probe-labelled cysteine peptide fold change: -0.0562
50 µM
  probe-labelled cysteine peptide fold change: 0.0718

## PPP6R2_O75170_264_NMFDGDRTESCLVSGTQVLLTLLETR (UniProt O75170)
10 µM
  probe-labelled cysteine peptide fold change: -0.0678
50 µM
  probe-labelled cysteine peptide fold change: -0.136

## PPP2R1B_P30154_389_DECPDVR (UniProt P30154)
10 µM
  probe-labelled cysteine peptide fold change: 0.0244
50 µM
  probe-labelled cysteine peptide fold change: 0.231

## PREX1_Q8TCU6_968+972_QAPLEPHPLCGLDFCPTNCHINLMEVSYPK (UniProt Q8TCU6)
10 µM
  probe-labelled cysteine peptide fold change: -0.292
50 µM
  probe-labelled cysteine peptide fold change: -0.787

## PPP6R3_Q5H9R7_82_YKYPNISCELLTSDVSQMNDR (UniProt Q5H9R7)
10 µM
  probe-labelled cysteine peptide fold change: 0.215
50 µM
  probe-labelled cysteine peptide fold change: -0.137

## PRDX3_P30048_229_AFQYVETHGEVCPANWTPDSPTIKPSPAASK (UniProt P30048)
10 µM
  probe-labelled cysteine peptide fold change: -0.0592
50 µM
  probe-labelled cysteine peptide fold change: -0.275

From the supplement of paper PMC12067093, “Discovery and optimisation of a covalent ligand for TRIM25 and its application to targeted protein ubiquitination” (Chemical Science, 2025)
